# Reference: the supplement of paper PMC4604168 (melanoma cell lines)
# The list shows a part of the results. Repeats are few or missing, and single values can be far off.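 Cells were imaged in 1,536-well plates, and nuclei stained with an antibody against cleaved PARP were counted against all DNA-stained nuclei to give the apoptosis fraction. Screening doses were chosen to leave most cells alive, and resting and induced cleaved-PARP levels differ strongly between cell lines.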
# Experiments:
# Test in all cases: cleaved PARP positive nuclei fraction relative to DMSO control; melanoma cells; higher = more apoptosis
# Details in all cases: library dose: low library concentration; 72 h
# MZ2-MEL = tested on: MZ2-MEL
# MeWo = tested on: MeWo
# RPMI7951 = tested on: RPMI7951
# RVH-421 = tested on: RVH-421
# SkMel28 = tested on: SkMel28
# SkMel2 = tested on: SkMel2
# SkMel30 = tested on: SkMel30
# SkMel5 = tested on: SkMel5
# UACC257 = tested on: UACC257
# UACC62 = tested on: UACC62
SMILES,cleaved PARP positive nuclei fraction (MZ2-MEL) [%],cleaved PARP positive nuclei fraction (MeWo) [%],cleaved PARP positive nuclei fraction (RPMI7951) [%],cleaved PARP positive nuclei fraction (RVH-421) [%],cleaved PARP positive nuclei fraction (SkMel28) [%],cleaved PARP positive nuclei fraction (SkMel2) [%],cleaved PARP positive nuclei fraction (SkMel30) [%],cleaved PARP positive nuclei fraction (SkMel5) [%],cleaved PARP positive nuclei fraction (UACC257) [%],cleaved PARP positive nuclei fraction (UACC62) [%]
"NC(=O)c1ccc(N(C(N)=O)c2c(F)cccc2F)nc1-c1ccc(F)cc1F + O=C(O)C(=O)Nc1sc2c(c1C(=O)O)CCNC2 [TCS401] (first compound 0.4 µM, partner dose 1.66667 µM)",87.6,59.7,48,135,119,54.9,187,68.1,125,125
"Cn1sc(=O)n(Cc2ccccc2)c1=O + COc1cc2c(Oc3ccc4[nH]c(C)cc4c3F)ncnc2cc1OCCCN1CCCC1 [cediranib] (first compound 0.4 µM, partner dose 0.4 µM)",135,97.6,86.7,185,190,64.4,88.1,234,231,71.4
"CC1(C)CCC(c2ccc(Cl)cc2)=C(CN2CCN(c3ccc(C(=O)NS(=O)(=O)c4ccc(N[C@H](CCN5CCOCC5)CSc5ccccc5)c(S(=O)(=O)C(F)(F)F)c4)cc3)CC2)C1 + CN(C)S(=O)(=O)c1ccc2c(c1)/C(=C/c1cc3c([nH]1)CCCC3)C(=O)N2 [SU6656] (first compound 0.4 µM, partner dose 0.4 µM)",272,80.9,168,75,28.5,78.4,85,196,121,137
"CN(c1ncccc1CNc1nc(Nc2ccc3c(c2)CC(=O)N3)ncc1C(F)(F)F)S(C)(=O)=O + O=C1NC(=O)/C(=C/c2ccc(-c3ccc(F)cc3O)o2)S1 [AS252424] (first compound 0.08 µM, partner dose 1 µM)",168,96.9,329,156,126,139,154,280,127,158
"CCN(CC)CCNC(=O)c1c(C)[nH]c(/C=C2\C(=O)Nc3ccc(F)cc32)c1C [sunitinib] + O=C1NC(=O)/C(=C/c2ccc(-c3ccc(F)cc3O)o2)S1 [AS252424] (first compound 0.4 µM, partner dose 1 µM)",148,66.7,101,171,64.9,36.2,51.4,69,102,55.1
"CC1(C)CCC(c2ccc(Cl)cc2)=C(CN2CCN(c3ccc(C(=O)NS(=O)(=O)c4ccc(N[C@H](CCN5CCOCC5)CSc5ccccc5)c(S(=O)(=O)C(F)(F)F)c4)cc3)CC2)C1 + CC(C)CCN1c2nc(Nc3cc(F)c(O)c(F)c3)ncc2N(C)C(=O)C1C [BID1870] (first compound 0.4 µM, partner dose 0.2 µM)",243,207,293,57.5,88.8,114,162,980,19.8,867
"CCCCCCCCc1ccc(CCC(N)(CO)CO)cc1 [fingolimod] + COc1ccc2c(c1)CCC1C2CCC2(C)C(NCCCCCCN3C(=O)C=CC3=O)CCC12 [U73122] (first compound 2 µM, partner dose 0.4 µM)",148,59.3,97.7,141,118,87.3,340,43.4,75.9,144
"CC(=O)O[C@@]12CO[C@@H]1C[C@H](O)[C@@]1(C)C(=O)[C@H](O)C3=C(C)[C@@H](OC(=O)[C@H](O)[C@@H](NC(=O)OC(C)(C)C)c4ccccc4)C[C@@](O)([C@@H](OC(=O)c4ccccc4)[C@H]21)C3(C)C [Docetaxel] + Cc1ccc(NC(=O)c2cccc(N(C)C)c2)cc1NC(=O)c1ccc(O)cc1 [ZM336372] (first compound 0.0001 µM, partner dose 2 µM)",493,256,156,57.8,114,510,229,268,140,201
"CCCCCCCCc1ccc(CCC(N)(CO)CO)cc1 [fingolimod] + CN(NC(=O)CC(=O)NN(C)C(=S)c1ccccc1)C(=S)c1ccccc1 [STA4783] (first compound 2 µM, partner dose 0.006 µM)",120,161,113,51.9,31.1,88.2,289,235,144,344
"Cn1sc(=O)n(Cc2ccccc2)c1=O + O=C(O)c1ccc(-c2c[nH]c3ncc(-c4ccccc4)cc23)cc1C1CCCC1 [GSK650394] (first compound 0.4 µM, partner dose 0.16 µM)",102,108,81.7,141,31,187,140,139,55.3,67.1
"COc1ccc(C2=N[C@@H](c3ccc(Cl)cc3)[C@@H](c3ccc(Cl)cc3)N2C(=O)N2CCNC(=O)C2)c(OC(C)C)c1 [Nutlin-3] + c1cc(-c2cnn3cc(-c4ccc(OCCN5CCCCC5)cc4)cnc23)ccn1 [Dorsomorphin] (first compound 0.1 µM, partner dose 0.4 µM)",41.1,92.1,43.7,62.5,110,36.5,107,84.1,143,54.1
"Cn1sc(=O)n(Cc2ccccc2)c1=O + CCc1ccc(CCOc2ccc(CC3SC(=O)NC3=O)cc2)nc1 [pioglitazone] (first compound 0.4 µM, partner dose 2 µM)",30.4,44.6,50.8,46.9,118,125,253,75.3,71.7,84
"C[C@]1(O)C[C@@H](c2nc(-c3ccc4ccc(-c5ccccc5)nc4c3)c3c(N)nccn32)C1 + N#Cc1c(O)c2c(-c3ccc(-c4ccccc4O)cc3)csc2[nH]c1=O [A769662] (first compound 0.4 µM, partner dose 2 µM)",197,39.1,28.4,77,138,138,129,75.3,89.3,169
"C[C@]1(O)C[C@@H](c2nc(-c3ccc4ccc(-c5ccccc5)nc4c3)c3c(N)nccn32)C1 + Oc1cc(-c2nc(-c3ccccc3)[nH]c2-c2ccncc2)ccc1Cl [L779450] (first compound 0.4 µM, partner dose 0.2 µM)",84.7,65.5,114,99,308,112,102,79.2,122,224
"C[C@@H](N)c1ccc(C(=O)Nc2ccnc3[nH]ccc23)cc1 + O=C(Nc1ccccc1)c1cc([N+](=O)[O-])ccc1Cl [GW9662] (first compound 0.4 µM, partner dose 2 µM)",167,138,31.3,49.4,107,48.6,176,87,479,173
"CCN(CC)CCNC(=O)c1c(C)[nH]c(/C=C2\C(=O)Nc3ccc(F)cc32)c1C [sunitinib] + C=CCn1c(=O)c2cnc(Nc3ccc(N4CCN(C)CC4)cc3)nc2n1-c1cccc(C(C)(C)O)n1 [MK1775] (first compound 0.4 µM, partner dose 0.02 µM)",156,179,57.3,117,278,66.1,222,92.9,67.6,67.3
"COc1ccc(C2=N[C@@H](c3ccc(Cl)cc3)[C@@H](c3ccc(Cl)cc3)N2C(=O)N2CCNC(=O)C2)c(OC(C)C)c1 [Nutlin-3] + O=C(Nc1ccccc1)c1cc([N+](=O)[O-])ccc1Cl [GW9662] (first compound 0.1 µM, partner dose 2 µM)",101,188,64.2,104,124,119,43.8,76.7,290,92.9
"CCCCCCCCc1ccc(CCC(N)(CO)CO)cc1 [fingolimod] + CCCCCCCCCCCC1=C(O)C(=O)C=C(O)C1=O [Embelin] (first compound 2 µM, partner dose 1.2 µM)",75.8,28.3,40.1,150,138,34,18.3,82,72.7,95.7
"C[C@]1(O)C[C@@H](c2nc(-c3ccc4ccc(-c5ccccc5)nc4c3)c3c(N)nccn32)C1 + CC(C)(C)c1cnc(CSc2cnc(NC(=O)C3CCNCC3)s2)o1 [SNS-032] (first compound 0.4 µM, partner dose 0.01 µM)",88.4,35.4,85.2,49.1,75.3,121,71.8,36.9,138,175
"Cn1cnc2c(F)c(Nc3ccc(Br)cc3Cl)c(C(=O)NOCCO)cc21 [selumetinib] + COc1cc(Nc2ncc(F)c(Nc3ccc4c(n3)NC(=O)C(C)(C)O4)n2)cc(OC)c1OC [Tamatinib] (first compound 0.015 µM, partner dose 0.4 µM)",562,118,157,66.7,71.3,281,312,27.6,353,173
"Cn1sc(=O)n(Cc2ccccc2)c1=O + COc1cc(Nc2ncc(F)c(Nc3ccc4c(n3)NC(=O)C(C)(C)O4)n2)cc(OC)c1OC [Tamatinib] (first compound 0.4 µM, partner dose 0.4 µM)",111,75,53.9,130,129,135,77,85.6,157,116
"C[C@]1(O)C[C@@H](c2nc(-c3ccc4ccc(-c5ccccc5)nc4c3)c3c(N)nccn32)C1 + Oc1nc(-c2ccc(C(F)(F)F)cc2)nc2c1CSCC2 [XAV939] (first compound 0.4 µM, partner dose 2 µM)",79.7,77,95.9,118,155,102,53.5,102,113,109

# Already shown: entries from further up.
SMILES,cleaved PARP positive nuclei fraction (MZ2-MEL) [%],cleaved PARP positive nuclei fraction (MeWo) [%],cleaved PARP positive nuclei fraction (RPMI7951) [%],cleaved PARP positive nuclei fraction (RVH-421) [%],cleaved PARP positive nuclei fraction (SkMel28) [%],cleaved PARP positive nuclei fraction (SkMel2) [%],cleaved PARP positive nuclei fraction (SkMel30) [%],cleaved PARP positive nuclei fraction (SkMel5) [%],cleaved PARP positive nuclei fraction (UACC257) [%],cleaved PARP positive nuclei fraction (UACC62) [%]
"CCN(CC)CCNC(=O)c1c(C)[nH]c(/C=C2\C(=O)Nc3ccc(F)cc32)c1C [sunitinib] + O=C1NC(=O)/C(=C/c2ccc(-c3ccc(F)cc3O)o2)S1 [AS252424] (first compound 0.4 µM, partner dose 1 µM)",148,66.7,101,171,64.9,36.2,51.4,69,102,55.1
"CC1(C)CCC(c2ccc(Cl)cc2)=C(CN2CCN(c3ccc(C(=O)NS(=O)(=O)c4ccc(N[C@H](CCN5CCOCC5)CSc5ccccc5)c(S(=O)(=O)C(F)(F)F)c4)cc3)CC2)C1 + CC(C)CCN1c2nc(Nc3cc(F)c(O)c(F)c3)ncc2N(C)C(=O)C1C [BID1870] (first compound 0.4 µM, partner dose 0.2 µM)",243,207,293,57.5,88.8,114,162,980,19.8,867
